Measurements reported in the supplement of paper PMC10849652.
Some of the results follow. Residues, ends and D or L forms follow the SMILES beside them. *: point of attachment. Cbz = O=C(OCc1ccccc1)*

The chains behind the UniProt entries cited, without tags or fusion partners. Where a name states a change or a piece, a line headed by the entry shows the natural chain unless it says otherwise.
UniProt Q2M2I8: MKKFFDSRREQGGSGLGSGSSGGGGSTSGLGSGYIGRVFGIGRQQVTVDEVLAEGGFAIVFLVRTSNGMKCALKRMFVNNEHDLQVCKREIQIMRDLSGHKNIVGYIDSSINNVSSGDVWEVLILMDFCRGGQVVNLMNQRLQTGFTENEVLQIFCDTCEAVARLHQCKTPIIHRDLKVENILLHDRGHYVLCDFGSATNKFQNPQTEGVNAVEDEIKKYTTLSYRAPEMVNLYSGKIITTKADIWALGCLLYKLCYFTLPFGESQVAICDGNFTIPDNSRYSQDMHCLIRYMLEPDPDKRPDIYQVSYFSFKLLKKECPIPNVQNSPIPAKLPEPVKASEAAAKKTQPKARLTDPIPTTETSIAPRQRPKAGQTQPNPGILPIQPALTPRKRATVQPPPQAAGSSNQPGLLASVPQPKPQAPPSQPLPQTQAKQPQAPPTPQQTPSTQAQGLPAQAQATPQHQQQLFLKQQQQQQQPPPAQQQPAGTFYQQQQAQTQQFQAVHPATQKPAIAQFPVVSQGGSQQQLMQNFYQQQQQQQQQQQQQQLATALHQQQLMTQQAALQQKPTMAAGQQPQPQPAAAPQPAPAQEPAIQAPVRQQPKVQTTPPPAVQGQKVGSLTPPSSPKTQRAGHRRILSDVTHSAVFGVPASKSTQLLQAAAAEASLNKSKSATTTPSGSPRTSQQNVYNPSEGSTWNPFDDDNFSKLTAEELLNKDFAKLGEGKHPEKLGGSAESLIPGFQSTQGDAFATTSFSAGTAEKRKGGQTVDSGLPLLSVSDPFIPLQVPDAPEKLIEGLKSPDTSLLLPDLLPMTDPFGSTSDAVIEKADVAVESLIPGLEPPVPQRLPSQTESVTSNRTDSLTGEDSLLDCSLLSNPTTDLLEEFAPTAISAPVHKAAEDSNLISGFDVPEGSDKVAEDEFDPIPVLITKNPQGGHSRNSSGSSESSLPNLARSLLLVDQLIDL
UniProt Q6UWZ7: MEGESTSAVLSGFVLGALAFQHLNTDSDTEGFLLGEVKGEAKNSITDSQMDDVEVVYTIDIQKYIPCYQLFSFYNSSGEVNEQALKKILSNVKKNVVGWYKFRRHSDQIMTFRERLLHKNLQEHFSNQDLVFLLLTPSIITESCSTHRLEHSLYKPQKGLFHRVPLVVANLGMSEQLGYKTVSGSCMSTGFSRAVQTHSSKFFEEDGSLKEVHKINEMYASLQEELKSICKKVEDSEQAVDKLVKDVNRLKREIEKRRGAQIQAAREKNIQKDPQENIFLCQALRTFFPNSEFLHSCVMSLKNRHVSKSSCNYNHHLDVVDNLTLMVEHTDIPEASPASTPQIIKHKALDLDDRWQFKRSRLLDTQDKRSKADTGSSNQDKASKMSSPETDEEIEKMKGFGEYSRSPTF
UniProt Q9BZC7: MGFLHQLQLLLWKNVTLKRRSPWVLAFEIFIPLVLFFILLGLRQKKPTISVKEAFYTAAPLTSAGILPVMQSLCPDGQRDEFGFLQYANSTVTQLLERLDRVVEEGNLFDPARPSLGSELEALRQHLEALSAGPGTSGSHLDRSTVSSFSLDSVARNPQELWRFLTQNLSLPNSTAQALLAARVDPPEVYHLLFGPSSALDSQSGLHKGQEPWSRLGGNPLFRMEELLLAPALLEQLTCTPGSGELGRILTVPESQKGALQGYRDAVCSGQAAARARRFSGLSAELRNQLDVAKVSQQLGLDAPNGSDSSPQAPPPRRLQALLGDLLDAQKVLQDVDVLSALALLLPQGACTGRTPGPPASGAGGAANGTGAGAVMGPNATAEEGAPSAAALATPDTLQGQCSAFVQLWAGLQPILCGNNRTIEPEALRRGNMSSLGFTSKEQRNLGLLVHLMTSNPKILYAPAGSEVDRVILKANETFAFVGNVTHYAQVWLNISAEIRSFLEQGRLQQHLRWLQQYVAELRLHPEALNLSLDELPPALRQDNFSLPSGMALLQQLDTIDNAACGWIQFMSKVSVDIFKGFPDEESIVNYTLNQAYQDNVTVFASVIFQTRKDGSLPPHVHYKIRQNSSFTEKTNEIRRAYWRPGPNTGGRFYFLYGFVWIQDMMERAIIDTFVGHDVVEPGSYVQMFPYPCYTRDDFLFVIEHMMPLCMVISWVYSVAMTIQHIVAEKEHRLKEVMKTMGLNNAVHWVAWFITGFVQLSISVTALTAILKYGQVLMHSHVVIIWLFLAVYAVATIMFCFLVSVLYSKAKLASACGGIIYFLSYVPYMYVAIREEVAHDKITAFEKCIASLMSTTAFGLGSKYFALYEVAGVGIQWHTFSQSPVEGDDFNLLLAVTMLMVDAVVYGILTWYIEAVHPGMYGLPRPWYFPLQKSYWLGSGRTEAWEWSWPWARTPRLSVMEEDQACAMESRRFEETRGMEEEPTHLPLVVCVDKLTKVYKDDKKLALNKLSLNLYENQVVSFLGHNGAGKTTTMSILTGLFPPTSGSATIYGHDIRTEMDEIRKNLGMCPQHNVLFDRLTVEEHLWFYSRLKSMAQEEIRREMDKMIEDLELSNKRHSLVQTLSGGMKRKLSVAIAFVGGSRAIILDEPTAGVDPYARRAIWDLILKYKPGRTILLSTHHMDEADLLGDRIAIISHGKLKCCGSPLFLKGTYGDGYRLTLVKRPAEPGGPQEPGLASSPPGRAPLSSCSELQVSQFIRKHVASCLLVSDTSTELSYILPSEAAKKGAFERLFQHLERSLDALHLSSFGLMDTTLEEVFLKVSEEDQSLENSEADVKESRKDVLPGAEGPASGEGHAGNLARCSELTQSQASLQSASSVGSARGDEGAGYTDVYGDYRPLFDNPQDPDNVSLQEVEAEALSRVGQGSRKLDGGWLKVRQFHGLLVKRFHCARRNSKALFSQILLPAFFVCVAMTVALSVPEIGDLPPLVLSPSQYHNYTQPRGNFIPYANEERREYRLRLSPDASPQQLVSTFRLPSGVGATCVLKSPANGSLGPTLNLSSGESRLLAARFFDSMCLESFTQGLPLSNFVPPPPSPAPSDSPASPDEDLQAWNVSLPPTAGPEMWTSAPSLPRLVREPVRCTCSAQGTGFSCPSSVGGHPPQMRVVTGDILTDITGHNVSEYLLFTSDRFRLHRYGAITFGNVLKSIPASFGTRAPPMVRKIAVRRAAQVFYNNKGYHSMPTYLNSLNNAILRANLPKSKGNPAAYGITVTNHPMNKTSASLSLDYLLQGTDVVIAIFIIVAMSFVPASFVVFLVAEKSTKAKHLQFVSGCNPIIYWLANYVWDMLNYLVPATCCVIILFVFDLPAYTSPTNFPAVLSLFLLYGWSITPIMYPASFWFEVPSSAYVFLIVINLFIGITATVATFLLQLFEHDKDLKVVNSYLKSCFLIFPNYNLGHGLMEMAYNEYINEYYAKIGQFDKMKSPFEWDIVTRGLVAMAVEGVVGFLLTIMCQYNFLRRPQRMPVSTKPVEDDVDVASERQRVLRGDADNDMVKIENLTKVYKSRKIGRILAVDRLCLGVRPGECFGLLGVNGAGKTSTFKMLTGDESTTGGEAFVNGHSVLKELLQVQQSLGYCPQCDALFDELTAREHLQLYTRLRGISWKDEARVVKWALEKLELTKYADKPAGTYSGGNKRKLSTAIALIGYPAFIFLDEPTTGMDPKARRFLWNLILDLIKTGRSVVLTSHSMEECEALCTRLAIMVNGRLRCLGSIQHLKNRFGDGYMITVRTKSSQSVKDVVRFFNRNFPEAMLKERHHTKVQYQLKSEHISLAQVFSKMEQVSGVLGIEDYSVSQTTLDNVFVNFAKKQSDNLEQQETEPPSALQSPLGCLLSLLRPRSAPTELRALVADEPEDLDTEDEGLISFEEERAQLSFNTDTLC
UniProt Q6PD74: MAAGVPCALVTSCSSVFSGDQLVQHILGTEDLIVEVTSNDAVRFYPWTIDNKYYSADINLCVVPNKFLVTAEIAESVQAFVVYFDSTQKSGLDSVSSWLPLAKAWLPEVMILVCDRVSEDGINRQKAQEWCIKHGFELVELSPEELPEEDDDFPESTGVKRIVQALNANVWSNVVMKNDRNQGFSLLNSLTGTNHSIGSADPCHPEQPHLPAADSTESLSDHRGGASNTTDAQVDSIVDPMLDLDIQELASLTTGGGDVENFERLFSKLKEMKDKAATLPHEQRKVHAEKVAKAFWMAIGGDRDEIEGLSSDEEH
UniProt P33897: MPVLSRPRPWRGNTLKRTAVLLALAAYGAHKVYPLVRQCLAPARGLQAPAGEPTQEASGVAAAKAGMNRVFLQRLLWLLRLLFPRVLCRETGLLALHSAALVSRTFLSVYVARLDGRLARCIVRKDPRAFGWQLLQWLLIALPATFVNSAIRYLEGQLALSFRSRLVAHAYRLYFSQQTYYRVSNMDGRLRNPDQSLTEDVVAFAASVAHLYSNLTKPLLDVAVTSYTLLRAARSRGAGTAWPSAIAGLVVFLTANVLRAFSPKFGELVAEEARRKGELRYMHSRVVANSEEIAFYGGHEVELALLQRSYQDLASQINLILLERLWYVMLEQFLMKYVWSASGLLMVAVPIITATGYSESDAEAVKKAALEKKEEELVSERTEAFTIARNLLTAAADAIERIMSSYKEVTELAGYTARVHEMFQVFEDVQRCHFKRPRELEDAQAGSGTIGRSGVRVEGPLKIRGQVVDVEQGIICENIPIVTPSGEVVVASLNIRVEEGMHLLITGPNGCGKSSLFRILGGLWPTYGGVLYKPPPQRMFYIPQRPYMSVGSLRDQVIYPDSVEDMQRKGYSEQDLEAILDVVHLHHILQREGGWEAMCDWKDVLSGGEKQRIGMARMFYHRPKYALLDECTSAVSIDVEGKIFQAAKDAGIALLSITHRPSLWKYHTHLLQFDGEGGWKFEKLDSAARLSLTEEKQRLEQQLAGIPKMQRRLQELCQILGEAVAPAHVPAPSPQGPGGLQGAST
UniProt Q99758: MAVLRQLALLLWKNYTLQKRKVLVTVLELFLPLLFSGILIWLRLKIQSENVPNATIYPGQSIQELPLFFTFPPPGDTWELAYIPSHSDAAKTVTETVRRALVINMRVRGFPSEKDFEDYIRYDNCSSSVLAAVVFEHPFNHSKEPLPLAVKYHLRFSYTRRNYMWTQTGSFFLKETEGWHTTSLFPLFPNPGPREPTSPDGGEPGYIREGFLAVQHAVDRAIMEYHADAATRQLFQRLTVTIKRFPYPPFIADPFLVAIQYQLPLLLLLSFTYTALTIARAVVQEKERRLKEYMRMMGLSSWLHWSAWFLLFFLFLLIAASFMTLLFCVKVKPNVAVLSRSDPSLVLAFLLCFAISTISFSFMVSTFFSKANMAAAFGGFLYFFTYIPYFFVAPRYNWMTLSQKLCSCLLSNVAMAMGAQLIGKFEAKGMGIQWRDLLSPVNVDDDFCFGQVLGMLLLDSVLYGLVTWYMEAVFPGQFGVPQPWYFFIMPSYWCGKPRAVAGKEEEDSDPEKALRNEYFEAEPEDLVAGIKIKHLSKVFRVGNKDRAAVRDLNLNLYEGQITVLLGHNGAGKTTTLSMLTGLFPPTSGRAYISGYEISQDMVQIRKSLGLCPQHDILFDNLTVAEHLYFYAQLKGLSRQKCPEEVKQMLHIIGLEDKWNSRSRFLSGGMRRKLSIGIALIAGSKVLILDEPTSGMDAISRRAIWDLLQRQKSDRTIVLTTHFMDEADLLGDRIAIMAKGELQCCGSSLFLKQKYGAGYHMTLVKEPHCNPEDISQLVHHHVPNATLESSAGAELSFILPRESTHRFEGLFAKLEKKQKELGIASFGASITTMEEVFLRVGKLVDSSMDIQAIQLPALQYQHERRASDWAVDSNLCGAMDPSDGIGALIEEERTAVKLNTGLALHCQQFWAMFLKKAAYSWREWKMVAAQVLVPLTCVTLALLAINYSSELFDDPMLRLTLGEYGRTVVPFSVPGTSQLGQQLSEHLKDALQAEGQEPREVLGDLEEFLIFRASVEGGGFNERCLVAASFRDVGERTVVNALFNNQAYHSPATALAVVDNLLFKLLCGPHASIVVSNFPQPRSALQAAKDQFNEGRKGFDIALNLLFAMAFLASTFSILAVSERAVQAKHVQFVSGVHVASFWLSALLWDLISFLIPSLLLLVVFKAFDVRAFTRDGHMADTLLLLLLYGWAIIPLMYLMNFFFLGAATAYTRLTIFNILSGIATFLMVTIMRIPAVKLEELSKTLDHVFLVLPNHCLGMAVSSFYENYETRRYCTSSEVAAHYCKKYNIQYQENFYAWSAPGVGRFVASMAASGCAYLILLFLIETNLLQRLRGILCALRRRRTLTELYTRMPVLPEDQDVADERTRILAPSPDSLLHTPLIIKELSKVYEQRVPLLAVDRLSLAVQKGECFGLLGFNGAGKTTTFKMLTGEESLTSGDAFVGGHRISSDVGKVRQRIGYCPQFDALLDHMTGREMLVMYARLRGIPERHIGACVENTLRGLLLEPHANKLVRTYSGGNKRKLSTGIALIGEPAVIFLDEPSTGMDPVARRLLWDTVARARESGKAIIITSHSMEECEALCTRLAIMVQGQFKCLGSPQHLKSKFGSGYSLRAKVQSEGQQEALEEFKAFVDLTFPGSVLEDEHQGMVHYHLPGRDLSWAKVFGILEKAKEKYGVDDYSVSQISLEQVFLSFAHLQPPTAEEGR

What was measured:
Assay in all cases: log2 fold change, soluble protein after heating vs DMSO (PISA); higher = thermal stabilisation; K562 cells, 10 uM, 30 min; active = over 0.2 and 3.5 SD of the protein, either way, in both replicates (recomputed)
IRAK-1-4 Inhibitor I = compound: C1COCCN1CCN2C3=CC=CC=C3N=C2NC(=O)C4=CC(=CC=C4)[N+](=O)[O-] [IRAK-1-4 Inhibitor I]
In short: (§1)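 Quantification of soluble protein used TMTpro 16plex LC-MS/MS, with channel sums equalised. Samples were the supernatant after 21,000xg for 90 min of pooled aliquots from K562 cells (2×10^6 cells/mL) treated with 10 μM compound for 30 min, heated for 3 min over 48°C-58°C, and extracted in PBS with 0.5% NP-40 at 4°C. Values, from duplicates, describe thermal stability against control samples on a log2 fold-change scale.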

ibrutinib = compound: C=CC(=O)N1CCC[C@@H](n2nc(-c3ccc(Oc4ccccc4)cc3)c3c(N)ncnc32)C1 [ibrutinib]
In short: as §1

[1] = compound: CC(=O)c1cnc2ccc(-c3cc(Cl)c(O)c(Cl)c3)nc2c1N[C@H]1CC[C@H](CN(C)C)CC1
In short: as §1

ralimetinib = compound: CC(C)(C)Cn1c(N)nc2ccc(-c3[nH]c(C(C)(C)C)nc3-c3ccc(F)cc3)nc21 [ralimetinib]
In short: as §1

[2] = compound: CC(C)(O)CC(=O)NCCn1ccc2ncnc(Nc3ccc(Oc4cccc(C(F)(F)F)c4)c(Cl)c3)c21
In short: as §1

[3] = compound: CC(C)C1=C2N=C(C=C(N2N=C1)NCC3=CC=CC=C3)NCCCCCCN
In short: as §1

[4] = compound: CC(C)C[C@@H](C=O)NC(=O)[C@H](CC(C)C)NC(=O)[C@H](CC(C)C)NC(=O)OCc1ccccc1
In short: as §1

pinometostat = compound: CC(C)N(C[C@H]1O[C@@H](n2cnc3c(N)ncnc32)[C@H](O)[C@@H]1O)[C@H]1C[C@@H](CCc2nc3cc(C(C)(C)C)ccc3[nH]2)C1 [pinometostat]
In short: as §1

[5] = compound: CC1=C(C2=C(C=C1)C(=O)C3=CC=CC=C3N2CCCN)C
In short: as §1

[6] = compound: CC1=C(C=C(C=C1)NC(=O)C2=CC(=CC=C2)C(C)(C)C#N)NC3=CC4=C(C=C3)N=CN(C4=O)C
In short: as §1

[7] = compound: CC1=C(C=C(C=C1)NC(=O)C2=CC(=CC=C2)N(C)C)NC(=O)C3=CC=C(C=C3)O
In short: as §1

[8] = compound: CC1=CC=C(C=C1)SC2=C3C=C(SC3=CN=C2)C(=O)N
In short: as §1

[9] = compound: CC1=NC(=CC=C1)C2=C(N=C(N2)C(C)(C)C)C3=CC4=NC=CN=C4C=C3
In short: as §1

Nexturastat A = compound: CCCCN(Cc1ccc(C(=O)NO)cc1)C(=O)Nc1ccccc1 [Nexturastat A]
In short: as §1

vemurafenib = compound: CCCS(=O)(=O)Nc1ccc(F)c(C(=O)c2c[nH]c3ncc(-c4ccc(Cl)cc4)cc23)c1F [vemurafenib]
In short: as §1

[10] = compound: CCCS(=O)(=O)Nc1ccc(F)c(C(=O)c2c[nH]c3ncc(Cl)cc23)c1F
In short: as §1

[11] = compound: CCCc1cc(C)[nH]c(=O)c1CNC(=O)c1cc(-c2ccnc(N3CCN(C)CC3)c2)cc2c1cnn2C(C)C
In short: as §1

givinostat = compound: CCN(CC)Cc1ccc2cc(COC(=O)Nc3ccc(C(=O)NO)cc3)ccc2c1 [givinostat]
In short: as §1

barasertib = compound: CCN(CCCOc1ccc2c(Nc3cc(CC(=O)Nc4cccc(F)c4)[nH]n3)ncnc2c1)CCOP(=O)(O)O [barasertib]
In short: as §1

Target	log2 fold change (IRAK-1-4 Inhibitor I)	log2 fold change (ibrutinib)	log2 fold change [1]	log2 fold change (ralimetinib)	log2 fold change [2]	log2 fold change [3]	log2 fold change [4]	log2 fold change (pinometostat)	log2 fold change [5]	log2 fold change [6]	log2 fold change [7]	log2 fold change [8]	log2 fold change [9]	log2 fold change (Nexturastat A)	log2 fold change (vemurafenib)	log2 fold change [10]	log2 fold change [11]	log2 fold change (givinostat)	log2 fold change (barasertib)
AAK1 (UniProt Q2M2I8)	inactive: -0.085	inactive: 0.051	inactive: 0.366	inactive: 0.04	inactive: 0	inactive: -0.043	inactive: -0.061	inactive: -0.05	inactive: -0.017	inactive: 0.01	inactive: 0	inactive: 0.032	inactive: 0.015	inactive: -0.021	inactive: 0.147	inactive: -0.028	inactive: 0.08	inactive: 0.042	inactive: -0.034
ACTN4 (UniProt K7EJH8)	inactive: -0.083	inactive: 0.014	inactive: 0.052	inactive: -0.081	inactive: 0.04	inactive: 0.042	inactive: -0.017	inactive: -0.028	inactive: -0.025	inactive: -0.031	inactive: 0.068	inactive: 0.007	inactive: 0.003	inactive: -0.084		inactive: -0.032	inactive: -0.023	inactive: 0.012	inactive: -0.029
AAK1, A0A096LP25	inactive: -0.063	inactive: 0.074	inactive: 0.319	inactive: -0.01	inactive: -0.034	inactive: -0.145	inactive: 0.065	inactive: -0.033	inactive: -0.044	inactive: -0.131	inactive: -0.011		inactive: 0	inactive: 0.068	inactive: -0.016		inactive: -0.026	inactive: 0.056	inactive: -0.004
ABRAXAS1 (UniProt Q6UWZ7)	inactive: -0.134	inactive: -0.028	inactive: -0.112	inactive: 0.071	inactive: -0.011	inactive: 0.109	inactive: -0.053	inactive: 0.173	inactive: 0.066	inactive: -0.156	inactive: 0.162	inactive: -0.137	inactive: -0.122	inactive: -0.021	inactive: -0.056	inactive: -0.089	inactive: 0.013	inactive: -0.052	inactive: 0.026
ABCA2 isoform 3 (UniProt Q9BZC7)	inactive: 0.007	inactive: -0.057		inactive: -0.099			inactive: -0.004	inactive: 0.022		inactive: -0.318	inactive: 0.026		inactive: -0.133						inactive: 0.062
AAGAB (UniProt Q6PD74)	inactive: -0.016	inactive: 0.026	inactive: 0.077	inactive: 0.065	inactive: -0.146	inactive: -0.099	inactive: 0	inactive: 0.147	inactive: -0.003	inactive: -0.153	inactive: -0.063	inactive: -0.012	inactive: -0.036	inactive: 0.109	inactive: -0.012	inactive: 0.144	inactive: -0.02	inactive: -0.004	inactive: 0.068
ABCD1 (UniProt P33897)	inactive: -0.036		inactive: 0.007		inactive: -0.098	inactive: 0.017		inactive: 0.021		inactive: -0.172			inactive: -0.068	inactive: 0.235				inactive: 0.085	
ACBD6 (UniProt Q9BR61)	inactive: -0.072	inactive: 0.009	active: 0.477	inactive: -0.169	inactive: -0.068	inactive: 0.173	inactive: 0.159	inactive: 0.008	inactive: 0.074	inactive: 0.039	inactive: -0.04	inactive: 0.139	inactive: 0.067	inactive: 0.28	inactive: 0.029	inactive: 0.022	inactive: 0.127	inactive: -0.011	inactive: 0.018
ABCB1 (UniProt P08183)	inactive: 0.195		inactive: -0.021					inactive: 0.088	inactive: -0.016			inactive: -0.099	inactive: -0.028			inactive: -0.222	inactive: -0.299		
ABCA3 (UniProt Q99758)	inactive: -0.012	inactive: -0.051	inactive: -0.005	inactive: -0.096	inactive: -0.096	inactive: -0.007	inactive: -0.017	inactive: 0.203	inactive: 0.054	inactive: -0.029	inactive: 0.011	inactive: -0.008	inactive: -0.035	inactive: -0.142	inactive: -0.161	inactive: -0.112		inactive: 0.059	inactive: 0.196

2 successive records already listed:
Target	log2 fold change (IRAK-1-4 Inhibitor I)	log2 fold change (ibrutinib)	log2 fold change [1]	log2 fold change (ralimetinib)	log2 fold change [2]	log2 fold change [3]	log2 fold change [4]	log2 fold change (pinometostat)	log2 fold change [5]	log2 fold change [6]	log2 fold change [7]	log2 fold change [8]	log2 fold change [9]	log2 fold change (Nexturastat A)	log2 fold change (vemurafenib)	log2 fold change [10]	log2 fold change [11]	log2 fold change (givinostat)	log2 fold change (barasertib)
ABCA2 isoform 3 (UniProt Q9BZC7)	inactive: 0.007	inactive: -0.057		inactive: -0.099			inactive: -0.004	inactive: 0.022		inactive: -0.318	inactive: 0.026		inactive: -0.133						inactive: 0.062
AAGAB (UniProt Q6PD74)	inactive: -0.016	inactive: 0.026	inactive: 0.077	inactive: 0.065	inactive: -0.146	inactive: -0.099	inactive: 0	inactive: 0.147	inactive: -0.003	inactive: -0.153	inactive: -0.063	inactive: -0.012	inactive: -0.036	inactive: 0.109	inactive: -0.012	inactive: 0.144	inactive: -0.02	inactive: -0.004	inactive: 0.068
